MIC data for one compound are collected here from PMC9114115, “Property space mapping of Pseudomonas aeruginosa permeability to small molecules” (Scientific Reports, 2022).

The test system of assay [1] is P. aeruginosa PΔ3. Description: microbe, parasite or virus in culture. The class given is cell-based. Particulars: Pseudomonas aeruginosa, read-out: MICs. The protocol:
(§1) In all experiments, P. aeruginosa PAO1-Pore (PAO1 attTn7::PLAC-fhuA) and PΔ3-Pore (ΔmexAB ΔmexCD ΔmexXY attTn7::PLAC-fhuA) strains were used[29]. Strains were routinely grown in Luria–Bertani (LB) or MOPS-M9 medium at 37 °C with aeration. MICs shown in Tables 1 and 2 were determined by a two-fold dilution method in LB broth and MOPS-M9 medium, respectively, following the previously described protocol.

Assay [2] has as its system P. aeruginosa PΔ3-Pore. Description: MIC by two-fold dilution, barrierless PΔ3-Pore. The class given is cell-based. The following applies: Pseudomonas aeruginosa, read-out: MICs, P∆3-Pore, MOPS-M9 medium. The protocol:
as §1

Values joined by “and” are separate entries in the source; they are usually repeats but may differ in a detail not shown here. Identical values can stand only once. Counter-ions that a name gives are not always drawn.

With `CCn1cc(C(=O)O)c(=O)c2cc(F)c(N3CCN(C)CC3)cc21` [OU-0000619, PEFLOXACINE MESYLATE], the MIC is 0.5 µM and 0.21 µg/mL in assay [1]; 0.0625 µM in assay [2].
